Data as given in PubChem BioAssay AID743121 (NCATS, 2013)
This is one part, drawn at random, of about 26,000 deposited reagents. 167 of them (0.63%) were called active. 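Calls are per gene from RSA p-values that are not deposited; an individual active-marked siRNA can sensitise only weakly.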 Unmarked entries are inactive. Reagents against one gene are numbered here. Further read-outs or replicates are left out here.

- Aim: 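Partners whose loss is lethal together with topoisomerase I blockade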 (primary screen)
- Cells: MDA-MB-231 cells, a human breast cancer line
- Reagents: single siRNA against human genes, 20 nM siRNA (0.8 pmol per well)
- Time to read-out: 120 h (drug added 48 h after transfection, read 72 h later)
- Treatment: camptothecin 20 nM (about EC30) for 72 h; vehicle 0.1% DMSO in parallel plates
- Measurement: 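Cell viability by ATP luminescence (CellTiter-Glo) as % of non-targeting siRNA wells, and the log2 ratio of viability without drug over viability with camptothecin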
- Direction: log2 vehicle/camptothecin viability: higher = stronger sensitisation to camptothecin; viability with camptothecin: higher = more viable cells
- Rule for the call: 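Active genes have an RSA gene-level p-value below 0.001, computed from the ratios of their separate siRNAs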

Gene | reagent no. | log2 vehicle/camptothecin viability | viability with camptothecin (% of control)
BDH1 | 1 | -0.00998 | 31.1
BDH1 | 2 | -0.542 | 90.1
BDH1 | 3 | -0.0202 | 93.6
FGF2 | 1 | -0.217 | 125
FGF2 | 2 | -0.446 | 75.4
FGF2 | 3 | -0.165 | 98.8
FGF2 | 4 | 0.0701 | 85.8
ARNT2 | 1 | -0.232 | 66.8
ARNT2 | 2 | -0.435 | 86
ARNT2 | 3 | -0.24 | 74.3
ARNT2 | 4 | -0.107 | 45.4
CES4A | 1 | -0.0879 | 77.7
CES4A | 2 | -0.444 | 17.3
CES4A | 3 | 0.173 | 70
DPP6 | 1 | -0.457 | 90
DPP6 | 2 | -0.386 | 75.8
DPP6 | 3 | -0.608 | 102
DPP6 | 4 | -0.0534 | 95.6
CRYGC | 1 | 0.45 | 46.1
CRYGC | 2 | -0.348 | 78.3
CRYGC | 3 | -0.0282 | 89.3
LIPJ | 1 | -0.0978 | 93
LIPJ | 2 | 0.0938 | 80.5
LIPJ | 3 | -0.171 | 116
LIPJ | 4 | -0.486 | 40.3
PPEF1 | 1 | 0.47 | 28.6
PPEF1 | 2 | 1 | 35.8
PPEF1 | 3 | -0.258 | 114
PPEF1 | 4 | -0.25 | 104
SLC20A1 | 1 | -0.283 | 78.9
SLC20A1 | 2 | -0.463 | 83.3
SLC20A1 | 3 | 0.0127 | 88.3
SLC20A1 | 4 | -0.387 | 95.3
FANCA | 1 | -0.216 | 79
FANCA | 2 | -0.0691 | 74.6
FANCA | 3 | 0.284 | 59.6
FANCA | 4 | -0.333 | 79.8
CHEK2 | 1 | -0.0529 | 103
CHEK2 | 2 | -0.147 | 65
CHEK2 | 3 | -0.0612 | 61.3
CHEK2 | 4 | 0.0994 | 105
MSC | 1 | 0.00189 | 69.7
MSC | 2 | -0.629 | 65.2
MSC | 3 | -0.508 | 82.9
MSC | 4 | 0.144 | 82.6
PHB2 | 1 | -0.357 | 62.7
PHB2 | 2 | 0.055 | 54.8
PHB2 | 3 | 0.468 | 6.62
